From patent publication US11634470B2, “Integrin binding peptides and uses thereof” (Universiteit Twente, priority 2015, dated 2023)
Part of at least one peptide drawing is inferred or uncertain, most often the ends. Where no end group is shown, it is not given here.

Amino acid sequences for entries named in this document (tags omitted). Residues count along the entry.
UniProt Q9UKX5, 23-1141 limits assumed: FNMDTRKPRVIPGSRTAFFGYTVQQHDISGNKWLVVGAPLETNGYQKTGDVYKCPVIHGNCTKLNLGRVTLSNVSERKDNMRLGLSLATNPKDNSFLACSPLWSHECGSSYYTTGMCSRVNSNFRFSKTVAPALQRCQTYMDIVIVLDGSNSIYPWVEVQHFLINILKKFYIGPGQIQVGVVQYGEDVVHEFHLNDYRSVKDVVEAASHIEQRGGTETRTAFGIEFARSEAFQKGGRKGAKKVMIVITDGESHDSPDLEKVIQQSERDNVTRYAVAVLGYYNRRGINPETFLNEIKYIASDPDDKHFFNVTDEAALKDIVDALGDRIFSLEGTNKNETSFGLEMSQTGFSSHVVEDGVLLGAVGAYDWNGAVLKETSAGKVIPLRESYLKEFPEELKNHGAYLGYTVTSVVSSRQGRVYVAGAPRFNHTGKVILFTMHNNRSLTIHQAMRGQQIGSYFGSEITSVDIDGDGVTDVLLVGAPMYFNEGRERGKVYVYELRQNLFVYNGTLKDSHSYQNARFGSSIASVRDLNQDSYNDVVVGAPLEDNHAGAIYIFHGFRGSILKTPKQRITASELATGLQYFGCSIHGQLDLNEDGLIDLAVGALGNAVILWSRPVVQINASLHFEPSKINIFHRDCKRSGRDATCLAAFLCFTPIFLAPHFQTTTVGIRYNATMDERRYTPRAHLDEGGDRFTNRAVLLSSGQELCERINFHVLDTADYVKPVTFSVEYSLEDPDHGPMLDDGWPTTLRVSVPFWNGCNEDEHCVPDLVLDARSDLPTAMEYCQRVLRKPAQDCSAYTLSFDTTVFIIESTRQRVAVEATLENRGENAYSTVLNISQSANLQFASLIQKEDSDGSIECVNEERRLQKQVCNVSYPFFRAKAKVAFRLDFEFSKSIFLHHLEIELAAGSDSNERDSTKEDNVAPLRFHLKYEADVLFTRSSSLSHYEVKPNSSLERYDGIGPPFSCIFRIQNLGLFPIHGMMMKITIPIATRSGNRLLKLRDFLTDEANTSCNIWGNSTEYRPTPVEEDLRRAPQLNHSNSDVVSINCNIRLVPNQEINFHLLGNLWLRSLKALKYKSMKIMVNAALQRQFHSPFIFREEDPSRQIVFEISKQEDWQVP
UniProt P05106, 27-718 limits assumed: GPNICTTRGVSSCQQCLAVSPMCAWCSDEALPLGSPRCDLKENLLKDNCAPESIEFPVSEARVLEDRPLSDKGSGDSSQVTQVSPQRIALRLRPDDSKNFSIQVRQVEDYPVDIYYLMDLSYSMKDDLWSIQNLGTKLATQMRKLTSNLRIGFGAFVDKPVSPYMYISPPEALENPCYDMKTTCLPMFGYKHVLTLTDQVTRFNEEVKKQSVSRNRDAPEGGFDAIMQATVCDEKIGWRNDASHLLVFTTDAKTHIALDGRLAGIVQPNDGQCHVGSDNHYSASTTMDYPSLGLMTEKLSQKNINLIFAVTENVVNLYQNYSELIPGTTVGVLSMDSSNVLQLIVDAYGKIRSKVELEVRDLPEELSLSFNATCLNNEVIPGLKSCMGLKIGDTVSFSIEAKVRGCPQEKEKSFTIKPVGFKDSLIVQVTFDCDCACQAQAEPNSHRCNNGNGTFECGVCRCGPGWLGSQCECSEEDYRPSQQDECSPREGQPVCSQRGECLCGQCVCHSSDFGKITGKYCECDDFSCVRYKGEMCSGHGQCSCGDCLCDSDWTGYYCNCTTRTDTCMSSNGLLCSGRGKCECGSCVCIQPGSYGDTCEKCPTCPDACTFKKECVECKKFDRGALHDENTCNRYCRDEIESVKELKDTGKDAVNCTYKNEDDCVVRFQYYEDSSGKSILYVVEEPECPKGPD
UniProt P06756, 891-992 limits assumed: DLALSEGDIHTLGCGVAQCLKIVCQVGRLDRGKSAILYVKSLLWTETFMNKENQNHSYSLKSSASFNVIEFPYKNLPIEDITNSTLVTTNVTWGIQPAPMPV
UniProt P06756, 31-889 limits assumed: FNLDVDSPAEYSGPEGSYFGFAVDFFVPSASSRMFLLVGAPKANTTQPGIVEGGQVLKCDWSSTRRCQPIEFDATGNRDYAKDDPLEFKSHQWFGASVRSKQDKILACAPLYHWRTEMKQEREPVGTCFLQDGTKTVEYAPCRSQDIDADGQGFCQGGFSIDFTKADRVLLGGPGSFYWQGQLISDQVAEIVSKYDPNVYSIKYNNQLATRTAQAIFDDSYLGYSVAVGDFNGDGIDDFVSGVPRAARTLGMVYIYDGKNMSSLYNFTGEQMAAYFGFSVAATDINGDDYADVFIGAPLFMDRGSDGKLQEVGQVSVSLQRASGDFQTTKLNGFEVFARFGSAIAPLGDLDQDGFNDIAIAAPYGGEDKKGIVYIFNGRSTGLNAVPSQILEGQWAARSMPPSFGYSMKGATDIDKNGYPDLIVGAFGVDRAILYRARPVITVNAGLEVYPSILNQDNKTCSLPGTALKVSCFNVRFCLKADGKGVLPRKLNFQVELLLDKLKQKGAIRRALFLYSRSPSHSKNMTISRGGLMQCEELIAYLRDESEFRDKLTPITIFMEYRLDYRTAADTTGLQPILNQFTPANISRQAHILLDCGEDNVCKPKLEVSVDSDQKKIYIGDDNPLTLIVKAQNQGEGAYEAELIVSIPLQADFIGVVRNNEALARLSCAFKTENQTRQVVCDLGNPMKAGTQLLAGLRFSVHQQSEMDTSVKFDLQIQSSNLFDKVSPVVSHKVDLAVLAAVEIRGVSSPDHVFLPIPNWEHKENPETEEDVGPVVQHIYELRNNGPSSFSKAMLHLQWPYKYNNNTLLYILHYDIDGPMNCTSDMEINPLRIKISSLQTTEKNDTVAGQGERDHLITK

Columns and labels:
[1] = test system: human primary pancreatic stellate cells (PSCs); assay: TGF-β1 activation of pancreatic stellate cells; assay type: cell-based; conditions: TGFβ-activated PSCs, 20 μM, gene expression
Method: Human primary pancreatic stellate cells (PSCs) were obtained from ScienCell (Carlsbad, Calif.) and were cultured in specified medium provided by the manufacturer, supplemented with penicillin/streptomycin. Cells were used less than the passage 9 and seeded on a Poly-L-Lysine-coated plate.
PSCs were seeded into a 12-well plate (6×10^4 cells/well, for gene expression) or 24-well plate (for staining) in complete medium. After 24 hours, cells were starved in serum-free medium and then after 24 hours, they were added with TGF-β1 (5 ng/ml) with/without the peptide.
After 24 hours of incubation, cells were lysed with the lysis buffer and total RNA was isolated using the GenElute™ Mammalian Total RNA Miniprep Kit. The RNA amount was measured by a NanoDrop® ND-1000 Spectrophotometer (Wilmington, Del.). Subsequently, cDNA was synthesized with iScript™ cDNA Synthesis Kit (BioRad, Veenendaal, The Netherlands). 10 ng cDNA was used for each PCR reaction. The real-time qPCR primers for human αSMA and RPS18 were purchased from Sigma (The Netherlands). Gene expression levels were normalized to the expression of the house-keeping gene RPS18s.
For immunostaining, the cells were washed and fixed with acetone-methanol and processed for immunocytochemical staining.
For immunocytostaining, cells were fixed with acetone-methanol (1:1) at −20° C. for 30 minutes and then dried and rehydrated for 10 minutes. […]

[2] = test system: human dermal fibroblasts; assay: TGFβ activation of human dermal fibroblasts, α-SMA western blot; assay type: cell-based; conditions: TGFβ 5 ng/ml, 48 h; AV3 1, 5, 20 μM; sAV3 5 and 20 μM
[3] = test system: Panc-1 + PSC tumors in SCID mice; assay: Tumor imaging in mice; assay type: in vivo; conditions: 50-fold excess of unlabeled AV3
[4] = target: T1, ITGA11 receptor (α11β1) (Homo sapiens, UniProt Q9UKX5); assay: Binding of FITC-labeled peptides to coated ITGA11 receptor; conditions: 10-fold excess unlabeled peptide
T1 construct: purchased R&D systems
Method: Purified ITGA11 receptor (α11β1; 100 μg/ml—stock; R&D systems) was diluted to 5 μg/ml with 1×PBS. 96-well ELISA White Maxisorb plate (Nunc) was coated with 50 μl of 5 μg/ml ITGA11 (or as control α5β1) receptor for overnight at 4° C. Then, wells were blocked for 3-4 hours with 200 μl of blocking buffer (1×PBS containing 5% BSA). Wells were washed three times with 200 μl of washing buffer (1×PBS containing 0.5% BSA and 0.05% TWEEN®-20). Peptides conjugated with FITC were diluted to different concentrations in washing buffer and then added to the plate and incubated at 37° C. for 1 hour. In addition, the binding of the peptide was blocked by co-incubation with 10× higher amount of unlabeled peptide. Subsequently, wells were washed three times with washing buffer. Then, 100 μl of 1×PBS was added and plates were read at 485 nm/520 nm with a fluorescence plate reader.

[5] = test system: LX2 cells; assay: Collagen-I expression in TGFβ-activated LX2 cells; assay type: cell-based, human; conditions: TGFβ1-activated LX2 cells, increasing concentrations
[6] = test system: CCl4-induced liver fibrosis model in mice; assay: CCl4-induced liver fibrosis mouse model; assay type: in vivo; conditions: 200 ug/kg/d i.p., compared to vehicle control
[7] = target: human recombinant receptor αvβ3 (Homo sapiens, UniProt P05106+P06756); assay: Microscale thermophoresis; assay type: binding; conditions: MST, AXI-I-PEG(6)-FITC 1 μM

| Substance | α-SMA expression [1] | fibroblast activation (α-SMA) [2] | blocking of AV3-800CW tumor accumulation [3] | blocking of AXI-I-FITC binding to coated α11β1 by unlabeled peptide [4] | expression of collagen-I [5] | fibrogenesis [6] | gene expression of ITGA5 and ITGA11 in livers [6] | protein expression of collagen-I and III in livers [6] | binding to αvβ3 [7] |
| --- | --- | --- | --- | --- | --- | --- | --- | --- | --- |
| RYYRITY [AV3, RYYRITY] | significantly inhibited the α-SMA expression | inhibited fibroblast activation concentration dependently | blocks its accumulation in tumor specifically |  |  |  |  |  |  |
| SGLTEWLRWFNS [AXI-I, SGLTEWLRWFNS] |  |  |  | blocked | inhibited the expression of collagen-I | reduction of fibrogenesis | decrease | decrease | did not show any binding |
